Data from article PMC3948889, “The Effects of LPM570065, a Novel Triple Reuptake Inhibitor, on Extracellular Serotonin, Dopamine and Norepinephrine Levels in Rats” (PLoS ONE, 2014).

What was measured:
[1] = test system: extracellular DA levels in the rat striatum; test: microdialysis: extracellular DA levels in the rat striatum; conditions: baseline dialysate
[2] = test system: extracellular 5-HT levels in the rat striatum; test: microdialysis: extracellular 5-HT levels in the rat striatum; conditions: baseline dialysate
[3] = acute group, intravenous solution (0.04 mmol·kg^−1 i.v.)
[4] = acute group, oral suspension (0.06 mmol·kg^−1 p.o.)
[5] = chronic, oral suspension (0.06 mmol·kg^−1·day^−1 p.o.), 14th day

`CN(C)CC(c1ccc(O)cc1)C1(O)CCCCC1` (centres unmarked) [desvenlafaxine] was tested. Which “Basal monoamine levels (mean±SD) DA” value [1, 3] did it give?
The value was 7.6 ± 1.4 nM.

And the “Basal monoamine levels (mean±SD) DA” value ([1]; acute group, oral solution (0.06 mmol·kg^−1 p.o.))?
The value was 6.6 ± 1.5 nM.

What about the “Basal monoamine levels (mean±SD) DA” value [1, 4] of the same compound?
Its value is 7.2 ± 1.5 nM.

And the “Basal monoamine levels (mean±SD) DA” value [1, 5]?
Its value is 6.7 ± 1.4 nM.

What about the “Basal monoamine levels (mean±SD) 5-HT” value [2, 3] of the same compound?
Its value is 4.4 ± 1.9 nM.

And the “Basal monoamine levels (mean±SD) 5-HT” value ([2]; acute group, oral solution (0.06 mmol·kg^−1 p.o.), not corrected for probe recovery)?
The value was 4.1 ± 1.6 nM.

What about the “Basal monoamine levels (mean±SD) 5-HT” value [2, 4] of the same compound?
The value was 4.3 ± 1.4 nM.

And the “Basal monoamine levels (mean±SD) 5-HT” value [2, 5]?
Its value is 4.1 ± 1.9 nM.
